# doi:10.1101/2024.01.05.574312
# By UniProt entry, the sequences of proteins in these tests, tags left out.
# UniProt P32558: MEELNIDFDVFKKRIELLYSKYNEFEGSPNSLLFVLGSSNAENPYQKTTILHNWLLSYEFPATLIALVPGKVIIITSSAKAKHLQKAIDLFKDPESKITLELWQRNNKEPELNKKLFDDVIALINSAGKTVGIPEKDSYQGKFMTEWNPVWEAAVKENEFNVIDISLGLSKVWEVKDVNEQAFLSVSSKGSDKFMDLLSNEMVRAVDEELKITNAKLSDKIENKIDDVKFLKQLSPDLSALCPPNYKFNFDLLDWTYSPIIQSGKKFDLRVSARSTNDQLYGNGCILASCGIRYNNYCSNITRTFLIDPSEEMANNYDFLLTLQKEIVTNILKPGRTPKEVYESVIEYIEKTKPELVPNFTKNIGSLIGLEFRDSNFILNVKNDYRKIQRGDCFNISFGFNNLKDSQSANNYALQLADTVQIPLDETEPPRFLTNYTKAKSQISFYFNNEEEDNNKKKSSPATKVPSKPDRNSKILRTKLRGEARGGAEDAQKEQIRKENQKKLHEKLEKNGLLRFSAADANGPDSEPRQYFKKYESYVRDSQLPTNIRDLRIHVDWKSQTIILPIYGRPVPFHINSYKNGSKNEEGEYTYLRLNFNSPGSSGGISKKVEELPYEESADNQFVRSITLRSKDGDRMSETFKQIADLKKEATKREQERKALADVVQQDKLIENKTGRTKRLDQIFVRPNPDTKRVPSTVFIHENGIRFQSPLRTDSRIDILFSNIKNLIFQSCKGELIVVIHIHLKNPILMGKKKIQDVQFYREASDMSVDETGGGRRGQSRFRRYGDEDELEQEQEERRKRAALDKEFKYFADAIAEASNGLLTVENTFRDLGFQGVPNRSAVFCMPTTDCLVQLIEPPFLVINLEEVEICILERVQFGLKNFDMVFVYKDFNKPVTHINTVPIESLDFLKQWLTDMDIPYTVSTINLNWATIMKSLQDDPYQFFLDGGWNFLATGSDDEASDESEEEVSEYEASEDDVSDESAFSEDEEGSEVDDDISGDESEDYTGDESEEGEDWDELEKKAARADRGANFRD
# UniProt Q04636: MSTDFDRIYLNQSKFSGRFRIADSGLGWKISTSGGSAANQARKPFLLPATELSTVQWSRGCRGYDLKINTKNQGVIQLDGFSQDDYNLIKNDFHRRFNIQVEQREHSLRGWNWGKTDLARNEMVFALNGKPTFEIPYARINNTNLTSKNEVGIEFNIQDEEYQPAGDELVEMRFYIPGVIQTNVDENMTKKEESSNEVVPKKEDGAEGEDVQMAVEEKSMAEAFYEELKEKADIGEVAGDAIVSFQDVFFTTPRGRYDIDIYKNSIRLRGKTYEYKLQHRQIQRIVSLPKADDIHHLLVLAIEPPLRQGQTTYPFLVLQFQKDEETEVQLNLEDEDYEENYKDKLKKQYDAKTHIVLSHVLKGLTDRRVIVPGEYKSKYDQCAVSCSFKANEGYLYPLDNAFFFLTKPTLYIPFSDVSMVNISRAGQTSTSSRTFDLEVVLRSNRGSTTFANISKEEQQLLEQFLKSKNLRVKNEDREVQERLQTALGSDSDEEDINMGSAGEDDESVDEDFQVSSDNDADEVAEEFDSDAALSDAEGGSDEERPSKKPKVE
# These are yes or no findings as the source states them, for the method shown. Binding seen in cells or lysates may run through a third protein. Here binding means that the protein was enriched with, or labelled near, the bait; the list need not be complete. No binding means not detected with the bait. Tags and fused reporters may be left off the sequences shown.
# T1: Ubp10-GFP (S. cerevisiae) (UniProt P53874)
# T1 sequence: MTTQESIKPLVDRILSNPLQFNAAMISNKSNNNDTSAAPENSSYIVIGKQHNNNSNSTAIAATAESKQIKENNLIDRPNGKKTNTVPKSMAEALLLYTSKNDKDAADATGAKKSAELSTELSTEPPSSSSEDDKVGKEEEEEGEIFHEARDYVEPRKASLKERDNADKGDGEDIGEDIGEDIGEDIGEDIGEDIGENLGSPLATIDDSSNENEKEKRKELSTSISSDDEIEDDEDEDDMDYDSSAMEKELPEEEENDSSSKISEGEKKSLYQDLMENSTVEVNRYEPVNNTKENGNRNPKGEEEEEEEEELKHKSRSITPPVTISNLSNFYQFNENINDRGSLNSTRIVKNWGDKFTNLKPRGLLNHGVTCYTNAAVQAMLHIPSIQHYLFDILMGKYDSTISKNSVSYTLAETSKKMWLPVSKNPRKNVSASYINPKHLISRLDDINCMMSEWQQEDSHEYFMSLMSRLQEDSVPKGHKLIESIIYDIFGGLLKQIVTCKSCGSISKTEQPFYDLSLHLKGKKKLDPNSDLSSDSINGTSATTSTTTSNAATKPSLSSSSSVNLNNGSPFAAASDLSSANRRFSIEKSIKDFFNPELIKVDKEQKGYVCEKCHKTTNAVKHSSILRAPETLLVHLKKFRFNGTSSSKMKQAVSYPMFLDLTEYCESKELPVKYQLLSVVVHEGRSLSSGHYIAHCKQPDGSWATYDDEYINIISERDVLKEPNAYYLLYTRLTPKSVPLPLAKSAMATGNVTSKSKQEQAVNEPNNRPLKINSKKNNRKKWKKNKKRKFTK
# B1: Rpa34 (RNA pol I subunit) (protein, UniProt P47006 1-233)
# chain: MSKLSKDYVSDSDSDDEVISNEFSIPDGFKKCKHLKNFPLNGDNKKKAKQQQVWLIKFPSNVDISKLKSLPVDFESSTTMTIDKHDYKIMDDTDIESSLTQDNLSNMTLLVPSESKESLKIASTAKDNAPLQFDKVFSVSETAKIPAIDYSKVRVPRKDVPKVEGLKLEHFATGYDAEDFHVAEEVKENKKEPKKRSHHDDEEESSEKKKKKKEKREKREKKDKKDKKKKHRD
# B2: Rpa43 (RNA pol I subunit) (protein, UniProt P46669 1-326)
# chain: MSQVKRANENRETARFIKKHKKQVTNPIDEKNGTSNCIVRVPIALYVSLAPMYLENPLQGVMKQHLNPLVMKYNNKVGGVVLGYEGLKILDADPLSKEDTSEKLIKITPDTPFGFTWCHVNLYVWQPQVGDVLEGYIFIQSASHIGLLIHDAFNASIKKNNIPVDWTFVHNDVEEDADVINTDENNGNNNNEDNKDSNGGSNSLGKFSFGNRSLGHWVDSNGEPIDGKLRFTVRNVHTTGRVVSVDGTLISDADEEGNGYNSSRSQAESLPIVSNKKIVFDDEVSIENKESHKELDLPEVKEDNGSEIVYEENTSESNDGESSDSD
# B3: Rpa49 (RNA pol I subunit) (protein, UniProt Q01080 1-415)
# chain: MSVKRSVSEIEIESVQDQPSVAVGSFFKGFRAPSDTTFDLYKKKKSEKDEFVLHGENERLEYEGYTDSSSQASNQYVVGLFNPEKKSIQLYKAPVLVSKVVSKSSKNLRGPKIKSKSDTRPSALRNALGEAFGTKKAKKAIADLERNRIDSDKLTDSAIDIVDSVRTASKDLPTRAQLDEITSNDRPTPLANIDATDVEQIYPIESIIPKKELQFIRVSSILKEADKEKKLELFPYQNNSKYVAKKLDSLTQPSQMTKLQLLYYLSLLLGVYENRRVNNKTKLLERLNSPPEILVDGILSRFTVIKPGQFGRSKDRSYFIDPQNEDKILCYILAIIMHLDNFIVEITPLAHELNLKPSKVVSLFRVLGAIVKGATVAQAEAFGIPKSTAASYKIATMKVPFKLPEMTRRGRGPRR
# B4: Rpa135 (RNA pol I subunit) (protein, UniProt P22138 1-1203)
# chain: MSKVIKPPGQARTADFRTLERESRFINPPKDKSAFPLLQEAVQPHIGSFNALTEGPDGGLLNLGVKDIGEKVIFDGKPLNSEDEISNSGYLGNKLSVSVEQVSIAKPMSNDGVSSAVERKVYPSESRQRLTSYRGKLLLKLKWSVNNGEENLFEVRDCGGLPVMLQSNRCHLNKMSPYELVQHKEESDEIGGYFIVNGIEKLIRMLIVQRRNHPMAIIRPSFANRGASYSHYGIQIRSVRPDQTSQTNVLHYLNDGQVTFRFSWRKNEYLVPVVMILKALCHTSDREIFDGIIGNDVKDSFLTDRLELLLRGFKKRYPHLQNRTQVLQYLGDKFRVVFQASPDQSDLEVGQEVLDRIVLVHLGKDGSQDKFRMLLFMIRKLYSLVAGECSPDNPDATQHQEVLLGGFLYGMILKEKIDEYLQNIIAQVRMDINRGMAINFKDKRYMSRVLMRVNENIGSKMQYFLSTGNLVSQSGLDLQQVSGYTVVAEKINFYRFISHFRMVHRGSFFAQLKTTTVRKLLPESWGFLCPVHTPDGSPCGLLNHFAHKCRISTQQSDVSRIPSILYSLGVAPASHTFAAGPSLCCVQIDGKIIGWVSHEQGKIIADTLRYWKVEGKTPGLPIDLEIGYVPPSTRGQYPGLYLFGGHSRMLRPVRYLPLDKEDIVGPFEQVYMNIAVTPQEIQNNVHTHVEFTPTNILSILANLTPFSDFNQSPRNMYQCQMGKQTMGTPGVALCHRSDNKLYRLQTGQTPIVKANLYDDYGMDNFPNGFNAVVAVISYTGYDMDDAMIINKSADERGFGYGTMYKTEKVDLALNRNRGDPITQHFGFGNDEWPKEWLEKLDEDGLPYIGTYVEEGDPICAYFDDTLNKTKIKTYHSSEPAYIEEVNLIGDESNKFQELQTVSIKYRIRRTPQIGDKFSSRHGQKGVCSRKWPTIDMPFSETGIQPDIIINPHAFPSRMTIGMFVESLAGKAGALHGIAQDSTPWIFNEDDTPADYFGEQLAKAGYNYHGNEPMYSGATGEELRADIYVGVVYYQRLRHMVNDKFQVRSTGPVNSLTMQPVKGRKRHGGIRVGEMERDALIGHGTSFLLQDRLLNSSDYTQASVCRECGSILTTQQSVPRIGSISTVCCRRCSMRFEDAKKLLTKSEDGEKIFIDDSQIWEDGQGNKFVGGNETTTVAIPFVLKYLDSELSAMGIRLRYNVEPK
# B5: Fen1 flap endonuclease (Rad27) (enzyme, UniProt P26793 1-382)
# chain: MGIKGLNAIISEHVPSAIRKSDIKSFFGRKVAIDASMSLYQFLIAVRQQDGGQLTNEAGETTSHLMGMFYRTLRMIDNGIKPCYVFDGKPPDLKSHELTKRSSRRVETEKKLAEATTELEKMKQERRLVKVSKEHNEEAQKLLGLMGIPYIIAPTEAEAQCAELAKKGKVYAAASEDMDTLCYRTPFLLRHLTFSEAKKEPIHEIDTELVLRGLDLTIEQFVDLCIMLGCDYCESIRGVGPVTALKLIKTHGSIEKIVEFIESGESNNTKWKIPEDWPYKQARMLFLDPEVIDGNEINLKWSPPKEKELIEYLCDDKKFSEERVKSGISRLKKGLKSGIQGRLDGFFQVVPKTKEQLAAAAKRAQENKKLNKNKNKVTKGRR
# B6: Elg1 (RLC cofactor) (protein, UniProt Q12050 1-791)
# chain: MKRHVSLSDILTGNKRKVRRQDALQITIDDENDTESGTFDARTAKHDDSSVIFLNHSVVKPIEAVSTNHKSAKEFLMTKRTKEKCDDDDDDLIVISDKSPKSETNCSKIALSQEHEDDISIISTSRIKSSLLNERASKIKNFLKHETTDTFKRLNSISKLNEIEPPLPLHQSIFPVGDKELSDRSVDIPLPFRTIPPLNHNFLPSDYESLKDKNSASCIPVRYQAPVLLGTNIKRNTTLTWPQLFKPVTLKQVLIEPKLKLRIKNWIETSFHTLEKPTLRNRLLNRINPNKQQGSGDELANFIVPDLEEDENLRPDFYRNGEANSSLSEFVPLMILHGNSIGKKTLIQTIMREIAGDDNSYQIYEVNSNMNRSKKDLLDILLDFTTTHYVKDSSKRKSDYGLVLFNDVDVLFKEHDRGYWAMISKLCEFSRRPLVLTCKDLSLVPSELIALASEQNSLFHTKKISTSTVYAFLTKYLKSLEIEVCDDWLRDVVKQNNADIRKCLMHLQFWCVDTEADLISSKNRLPVLTSTLGSSVKDISQLTDLLSINDVIGQATLNRSMVRQEIDSTTMTPEKVNTFQDQNLDDEMKLKFDYVIDYKLHLNDPNRQPLLPFELNIYQHIQEQLEARYSYVREANHRLDNEYLVNRFKKMTESTLNFLASRIPKYDHLQSARRTRNSKKISDILNQFKGIYNDETLNENAEIDLLSATTQQIKAEINPFVFEIAKSDANVKNENKQIFELHSENVSERRYKDLVYQLSQEGVLKNVWFNADPSIVVRKWEHLHSGFSKNK
# Target: T1, Ubp10-GFP (S. cerevisiae)
# Assay: affinity purification with mass spectrometry
row,binding,Molecule
1,binds,Spt16 (FACT subunit) (from UniProt P32558 1-1035)
2,binds,Pob3 (FACT subunit) (from UniProt Q04636 1-552)
3,binds,B1
4,binds,B2
5,binds,B3
6,binds,B4
7,binds,B5
8,no binding,B6
